Results are given in words; binding and its absence hold for the method and conditions named. In cells and extracts the contact can be indirect. Here binding means that the protein was enriched with, or labelled near, the bait; the list need not be complete. Sequences can lack the tags named with a protein.
T1: calgranulin B-FLAG (UniProt P06702)
T1 sequence: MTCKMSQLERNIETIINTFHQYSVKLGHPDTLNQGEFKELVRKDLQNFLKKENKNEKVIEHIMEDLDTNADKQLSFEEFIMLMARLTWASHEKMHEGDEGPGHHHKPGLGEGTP

Protein sequences, listed by entry. Tags and fused reporters are not part of them. Lines headed by an entry give the natural chain unless they say otherwise; changes in a name come on top.
UniProt P05556: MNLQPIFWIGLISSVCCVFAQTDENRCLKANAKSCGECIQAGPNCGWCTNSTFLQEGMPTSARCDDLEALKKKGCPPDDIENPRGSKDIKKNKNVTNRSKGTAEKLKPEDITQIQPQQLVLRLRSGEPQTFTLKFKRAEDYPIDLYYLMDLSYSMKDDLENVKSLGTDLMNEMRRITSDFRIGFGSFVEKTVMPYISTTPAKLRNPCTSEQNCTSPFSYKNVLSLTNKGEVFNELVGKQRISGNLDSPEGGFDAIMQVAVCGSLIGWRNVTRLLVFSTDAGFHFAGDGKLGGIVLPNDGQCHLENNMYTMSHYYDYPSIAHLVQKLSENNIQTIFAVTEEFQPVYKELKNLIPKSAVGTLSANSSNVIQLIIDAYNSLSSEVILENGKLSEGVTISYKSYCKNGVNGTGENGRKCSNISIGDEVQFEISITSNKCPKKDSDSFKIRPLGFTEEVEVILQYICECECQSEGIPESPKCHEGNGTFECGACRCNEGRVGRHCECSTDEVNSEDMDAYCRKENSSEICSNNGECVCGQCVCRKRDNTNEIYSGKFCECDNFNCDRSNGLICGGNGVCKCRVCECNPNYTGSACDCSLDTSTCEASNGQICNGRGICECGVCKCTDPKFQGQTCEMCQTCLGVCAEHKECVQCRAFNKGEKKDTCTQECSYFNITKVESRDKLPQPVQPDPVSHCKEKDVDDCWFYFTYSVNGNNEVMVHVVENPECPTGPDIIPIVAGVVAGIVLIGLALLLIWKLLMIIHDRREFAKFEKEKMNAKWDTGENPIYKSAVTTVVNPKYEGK
UniProt P09382: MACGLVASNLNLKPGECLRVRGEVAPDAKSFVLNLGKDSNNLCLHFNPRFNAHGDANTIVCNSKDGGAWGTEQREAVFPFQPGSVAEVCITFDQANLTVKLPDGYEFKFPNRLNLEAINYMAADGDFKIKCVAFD
UniProt P60903: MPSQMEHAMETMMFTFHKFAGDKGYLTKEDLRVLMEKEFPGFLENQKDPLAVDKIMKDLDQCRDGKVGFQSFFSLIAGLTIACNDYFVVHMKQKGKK
UniProt Q07065: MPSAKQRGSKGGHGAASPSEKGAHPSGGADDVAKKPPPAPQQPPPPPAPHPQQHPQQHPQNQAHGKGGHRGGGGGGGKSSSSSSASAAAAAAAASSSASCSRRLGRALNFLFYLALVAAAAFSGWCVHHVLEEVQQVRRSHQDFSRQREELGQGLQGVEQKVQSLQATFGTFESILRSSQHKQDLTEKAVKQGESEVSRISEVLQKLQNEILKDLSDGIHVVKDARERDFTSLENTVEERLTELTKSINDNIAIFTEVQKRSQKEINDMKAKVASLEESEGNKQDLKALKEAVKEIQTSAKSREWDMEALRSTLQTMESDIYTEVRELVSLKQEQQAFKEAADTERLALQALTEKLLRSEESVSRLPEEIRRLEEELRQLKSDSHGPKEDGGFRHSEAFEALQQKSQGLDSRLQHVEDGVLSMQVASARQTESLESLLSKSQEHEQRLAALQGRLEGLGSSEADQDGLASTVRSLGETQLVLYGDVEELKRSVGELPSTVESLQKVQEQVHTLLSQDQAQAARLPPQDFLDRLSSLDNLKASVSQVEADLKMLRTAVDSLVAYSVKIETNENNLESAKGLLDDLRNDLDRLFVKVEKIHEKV
UniProt O14576: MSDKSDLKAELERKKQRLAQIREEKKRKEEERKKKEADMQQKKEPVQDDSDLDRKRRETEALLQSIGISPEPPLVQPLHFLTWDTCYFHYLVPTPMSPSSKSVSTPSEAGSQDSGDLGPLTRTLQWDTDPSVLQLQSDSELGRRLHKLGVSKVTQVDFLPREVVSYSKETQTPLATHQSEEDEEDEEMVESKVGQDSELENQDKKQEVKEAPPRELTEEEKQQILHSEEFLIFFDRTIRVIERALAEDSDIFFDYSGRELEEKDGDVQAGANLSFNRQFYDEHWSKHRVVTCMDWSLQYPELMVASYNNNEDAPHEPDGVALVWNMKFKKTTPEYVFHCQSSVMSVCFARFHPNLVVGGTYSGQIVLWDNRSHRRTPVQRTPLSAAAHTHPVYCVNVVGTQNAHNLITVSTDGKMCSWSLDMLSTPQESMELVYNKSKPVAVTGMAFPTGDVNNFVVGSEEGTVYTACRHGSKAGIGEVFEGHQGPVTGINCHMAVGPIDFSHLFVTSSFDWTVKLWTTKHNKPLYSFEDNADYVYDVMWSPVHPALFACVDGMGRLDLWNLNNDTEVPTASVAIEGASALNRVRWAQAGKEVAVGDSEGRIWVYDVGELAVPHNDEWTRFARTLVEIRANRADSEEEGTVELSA
UniProt P17096: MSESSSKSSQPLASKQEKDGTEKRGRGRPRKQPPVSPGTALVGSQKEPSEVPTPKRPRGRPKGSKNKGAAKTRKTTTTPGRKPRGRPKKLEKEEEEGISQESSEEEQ
UniProt Q09028: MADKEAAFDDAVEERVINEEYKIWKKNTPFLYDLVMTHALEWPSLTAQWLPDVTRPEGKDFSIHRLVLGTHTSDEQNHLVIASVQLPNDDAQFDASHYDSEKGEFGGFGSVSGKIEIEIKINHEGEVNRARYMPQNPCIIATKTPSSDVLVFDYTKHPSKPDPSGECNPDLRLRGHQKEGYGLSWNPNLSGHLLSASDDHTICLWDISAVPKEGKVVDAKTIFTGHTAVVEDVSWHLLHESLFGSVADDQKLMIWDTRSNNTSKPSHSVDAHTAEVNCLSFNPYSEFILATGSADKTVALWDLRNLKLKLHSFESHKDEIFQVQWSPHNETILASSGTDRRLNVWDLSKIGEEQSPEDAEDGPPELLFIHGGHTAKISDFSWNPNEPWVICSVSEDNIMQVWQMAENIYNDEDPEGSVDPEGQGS

B1: CD59 glycoprotein (protein, UniProt P13987 26-102)
chain: LQCYNCPNPTADCKTAVNCSSDFDACLITKAGLQVYNKCWKFEHCNFNDVTTRLRENELTYYCCKKDLCNFNEQLEN
B2: flotillin-1 (protein, UniProt O75955 1-427)
chain: MFFTCGPNEAMVVSGFCRSPPVMVAGGRVFVLPCIQQIQRISLNTLTLNVKSEKVYTRHGVPISVTGIAQVKIQGQNKEMLAAACQMFLGKTEAEIAHIALETLEGHQRAIMAHMTVEEIYKDRQKFSEQVFKVASSDLVNMGISVVSYTLKDIHDDQDYLHSLGKARTAQVQKDARIGEAEAKRDAGIREAKAKQEKVSAQYLSEIEMAKAQRDYELKKAAYDIEVNTRRAQADLAYQLQVAKTKQQIEEQRVQVQVVERAQQVAVQEQEIARREKELEARVRKPAEAERYKLERLAEAEKSQLIMQAEAEAASVRMRGEAEAFAIGARARAEAEQMAKKAEAFQLYQEAAQLDMLLEKLPQVAEEISGPLTSANKITLVSSGSGTMGAAKVTGEVLDILTRLPESVERLTGVSISQVNHKPLRTA

Each molecule was assayed against T1, calgranulin B-FLAG (assay: affinity purification with mass spectrometry; whole homogenates of pLenti6-calgranulin B-FLAG- and pLenti6-Con-infected HCT-116 cells on anti-FLAG M2 affinity gel; SDS-PAGE slices, LC-MS/MS; proteins also found in the pLenti6-Con precipitate were removed).

binding, binds:
ITGA3 (human (endogenous in HCT-116))
ITGB1 (from UniProt P05556 21-798)
LGALS1 (from UniProt P09382 1-135)
calcium-binding protein A10 (from UniProt P60903 1-97)
cytoskeleton-associated protein 4 (from UniProt Q07065 1-602)
dynein intermediate chain 1 (from UniProt O14576 1-645)
high mobility group AT-hook1 (from UniProt P17096 1-107)
retinoblastoma binding protein 4 (from UniProt Q09028 1-425)

Molecular target: T1, calgranulin B-FLAG
Assay: as above
Remark: another data set of the same source

binding, binds:
B1
B2

Source: PMC5351672
